Series [1] has as its target Lac repressor (LacI), wild type, M45-tagged (Escherichia coli) (UniProt P03023). Description: EMSA. The note with it: 293 whole cell extract; supershifted by M45 antibody; protein in a lysate after overexpression; label: radiolabel. (In general: Mobility shift assays separate free from complexed probe on a gel.)
The target in series [2] is Lac repressor X86 mutant, M45-tagged S61L (Escherichia coli) (UniProt P03023). Briefly: EMSA. The note with it: 293 whole cell extract; supershifted by M45 antibody; protein in a lysate after overexpression; protein details: M45 epitope tag, expressed in 293 cells; label: radiolabel.

At least one result comes from cells or an extract, where the contact may be indirect. Construct, isoform or probe ends are uncertain for at least one entry.

In the case of “TCGACAATTGTGAGCGCTCACAATTTGTCTAGGGCCGCGGGGACTTTGACCGTTTACGTGGAGG (double strand) [AV-VII(lac)2 dimer (head-to-tail dimer of the printed unit)]”, the binding result in series [1] and in series [2] was “binds” throughout.

As for “TCGACAATTGTGAGCGCTCACAATTC (double strand) [lac binding site monomer (symmetric)]”, the binding result in series [1] and in series [2] was “binds” throughout.

The record behind these values is US20060073595.
